# From publication PMC7291584
# Chains of the proteins cited; added tags and fusions are not shown.
# UniProt Q14676: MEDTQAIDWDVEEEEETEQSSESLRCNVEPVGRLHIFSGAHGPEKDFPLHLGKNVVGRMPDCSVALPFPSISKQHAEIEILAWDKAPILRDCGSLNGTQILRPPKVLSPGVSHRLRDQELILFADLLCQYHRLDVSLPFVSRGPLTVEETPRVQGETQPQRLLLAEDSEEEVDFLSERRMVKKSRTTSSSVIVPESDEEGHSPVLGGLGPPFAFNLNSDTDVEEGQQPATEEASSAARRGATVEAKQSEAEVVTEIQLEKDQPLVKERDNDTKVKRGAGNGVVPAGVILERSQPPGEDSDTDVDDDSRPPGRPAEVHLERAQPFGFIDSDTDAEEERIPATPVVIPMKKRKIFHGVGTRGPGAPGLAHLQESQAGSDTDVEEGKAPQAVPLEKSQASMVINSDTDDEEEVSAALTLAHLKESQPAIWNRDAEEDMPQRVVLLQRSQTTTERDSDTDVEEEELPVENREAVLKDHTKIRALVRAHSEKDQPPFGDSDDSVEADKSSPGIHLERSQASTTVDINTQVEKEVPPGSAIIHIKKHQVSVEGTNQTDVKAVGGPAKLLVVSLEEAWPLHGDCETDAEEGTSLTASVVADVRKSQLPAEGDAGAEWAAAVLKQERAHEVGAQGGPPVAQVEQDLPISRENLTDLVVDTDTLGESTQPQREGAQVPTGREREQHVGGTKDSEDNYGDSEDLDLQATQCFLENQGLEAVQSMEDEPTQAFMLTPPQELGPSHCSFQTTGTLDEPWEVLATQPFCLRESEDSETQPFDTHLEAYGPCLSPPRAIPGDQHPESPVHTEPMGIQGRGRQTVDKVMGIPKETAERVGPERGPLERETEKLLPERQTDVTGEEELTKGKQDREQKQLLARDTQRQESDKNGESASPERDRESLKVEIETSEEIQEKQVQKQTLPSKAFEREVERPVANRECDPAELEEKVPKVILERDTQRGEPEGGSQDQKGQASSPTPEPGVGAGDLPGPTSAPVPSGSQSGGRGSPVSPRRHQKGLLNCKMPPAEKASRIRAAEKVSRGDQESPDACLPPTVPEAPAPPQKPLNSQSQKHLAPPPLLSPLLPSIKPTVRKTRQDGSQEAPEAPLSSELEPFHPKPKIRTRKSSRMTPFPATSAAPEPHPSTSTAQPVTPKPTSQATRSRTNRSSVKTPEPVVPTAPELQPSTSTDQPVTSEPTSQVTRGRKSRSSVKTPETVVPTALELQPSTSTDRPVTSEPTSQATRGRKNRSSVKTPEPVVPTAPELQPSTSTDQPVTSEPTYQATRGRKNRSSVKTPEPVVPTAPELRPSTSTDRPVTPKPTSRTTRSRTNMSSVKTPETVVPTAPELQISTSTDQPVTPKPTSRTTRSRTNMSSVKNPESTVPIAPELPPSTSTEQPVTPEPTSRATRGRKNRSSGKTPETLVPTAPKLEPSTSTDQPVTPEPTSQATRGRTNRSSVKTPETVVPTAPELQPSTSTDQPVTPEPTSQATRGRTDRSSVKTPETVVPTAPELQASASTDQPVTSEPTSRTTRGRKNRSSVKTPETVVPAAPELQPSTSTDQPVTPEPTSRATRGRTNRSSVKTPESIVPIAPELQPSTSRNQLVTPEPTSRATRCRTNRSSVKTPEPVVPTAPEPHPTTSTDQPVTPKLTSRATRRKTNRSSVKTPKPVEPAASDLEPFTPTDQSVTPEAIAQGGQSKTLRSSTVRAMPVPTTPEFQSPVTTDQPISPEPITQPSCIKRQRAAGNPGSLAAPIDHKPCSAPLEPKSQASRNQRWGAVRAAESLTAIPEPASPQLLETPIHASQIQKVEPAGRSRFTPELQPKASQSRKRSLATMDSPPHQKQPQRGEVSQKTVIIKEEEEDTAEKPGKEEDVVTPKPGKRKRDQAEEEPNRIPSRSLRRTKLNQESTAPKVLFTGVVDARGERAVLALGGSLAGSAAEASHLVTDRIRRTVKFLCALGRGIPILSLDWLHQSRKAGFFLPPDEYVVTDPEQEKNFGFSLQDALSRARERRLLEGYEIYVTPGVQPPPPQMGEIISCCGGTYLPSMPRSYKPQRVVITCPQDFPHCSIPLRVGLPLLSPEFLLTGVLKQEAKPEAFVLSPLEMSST
# These are yes or no findings as the source states them, for the method shown. In cells and extracts the contact can be indirect. Some entries that bind do so weakly or less than the wild type.
# Legend:
# [1] = molecular target: T1, Inhibitor of differentiation 4 (ID4) (human (endogenous in HCC70, MDA-MB-468, HCC1954, OVKATE and patient-derived xenografts)) (UniProt P47928); assay: proximity ligation; Duolink PLA with mouse/rabbit probes on fixed cells (MDA-MB-468, HCC70, OVKATE), confocal imaging, dots per cell; controls ID4:V5, ID4:FLAG and siMDC1
# T1 sequence: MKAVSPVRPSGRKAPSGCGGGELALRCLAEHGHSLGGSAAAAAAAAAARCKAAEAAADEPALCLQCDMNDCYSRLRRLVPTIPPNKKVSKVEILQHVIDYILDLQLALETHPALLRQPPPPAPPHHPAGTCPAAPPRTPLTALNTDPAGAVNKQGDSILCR
# [2] = molecular target: T1, Inhibitor of differentiation 4 (ID4) (human (endogenous in HCC70, MDA-MB-468, HCC1954, OVKATE and patient-derived xenografts)); assay: co-IP; MDA-MB-468 cells prepared using the RIME protocol (cross-linked); IP with anti-ID4 or anti-MDC1 antibodies on Protein A/G magnetic beads against IgG; western blotting with independent monoclonal MDC1 or ID4 antibody
substance,measurement,setting,value
mediator of DNA damage checkpoint 1 (MDC1) (from UniProt Q14676 1-2089),binding,[1],binds
same,binding,[2],binds
